Experimental findings from article PMC6558801 are described below.

The target in this test is EGFR truncate with the intracellular tyrosine kinase domain. As to the kind of experiment: co-IP; different truncates of EGFR co-expressed with PLEK2 in transfected cells (cell line and antibody not stated).

Results are given in words; binding and its absence hold for the method and conditions named. In cells and extracts the contact can be indirect. Binding can be weak; no strength is given. Where a sequence is shown, tags or fusion partners need not be part of it.

B1: Flag-tagged PLEK2 (pleckstrin-2), overexpressed in 293T cells (protein, UniProt Q9NYT0 1-353)
chain: MEDGVLKEGFLVKRGHIVHNWKARWFILRQNTLVYYKLEGGRRVTPPKGRILLDGCTITCPCLEYENRPLLIKLKTQTSTEYFLEACSREERDAWAFEITGAIHAGQPGKVQQLHSLRNSFKLPPHISLHRIVDKMHDSNTGIRSSPNMEQGSTYKKTFLGSSLVDWLISNSFTASRLEAVTLASMLMEENFLRPVGVRSMGAIRSGDLAEQFLDDSTALYTFAESYKKKISPKEEISLSTVELSGTVVKQGYLAKQGHKRKNWKVRRFVLRKDPAFLHYYDPSKEENRPVGGFSLRGSLVSALEDNGVPTGVKGNVQGNLFKVITKDDTHYYIQASSKAERAEWIEAIKKLT
On to B1, for which the binding result was “binds”.
